Source: PubChem BioAssay AID1259254 (NCATS, 2017)

- Assay: 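Genome-wide screen for genes that prevent DNA re-replication in cancer cells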 (primary screen)
- System: human HCT116 colorectal cancer cells
- Reagent: single siRNA against human genes
- Duration: 3 days
- Read-out: 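Nuclei stained with Hoechst and imaged; cell-cycle phase assigned by DNA content; G2 share scaled per plate, non-targeting siRNA 0%, GMNN siRNA 100%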
- Reading the numbers: G2 robust z-score and G2 cells, % of GMNN control: higher = more G2 cells, more excess DNA replication
- Hit rule: 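Active siRNAs have a G2 robust z of 5 or more median absolute deviations over the median, which in these data means about 38% or higher of GMNN control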
This is a random part of about 59,000 reagents. About 1,550 of all reagents (2.6%) count as active. 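G2 share is only a proxy for re-replication; each gene was hit by three separate siRNAs, and active genes were retested.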 Reagents against one gene are numbered here. Further read-outs or replicates are left out here. Not given: the amount of reagent.

EXT2 #1
- G2 robust z-score: -0.466
- G2 cells, % of GMNN control: -0.313
- Call: inactive

EXT2 #2
- G2 robust z-score: -0.383
- G2 cells, % of GMNN control: 0.275
- Call: inactive

EXT2 #3
- G2 robust z-score: -0.0803
- G2 cells, % of GMNN control: 2.4
- Call: inactive

NRIP1 #1
- G2 robust z-score: 0.886
- G2 cells, % of GMNN control: 9.2
- Call: inactive

NRIP1 #2
- G2 robust z-score: 0.387
- G2 cells, % of GMNN control: 5.69
- Call: inactive

NRIP1 #3
- G2 robust z-score: -0.453
- G2 cells, % of GMNN control: -0.222
- Call: inactive

MFSD2A #1
- G2 robust z-score: 1.37
- G2 cells, % of GMNN control: 12.6
- Call: inactive

MFSD2A #2
- G2 robust z-score: 0.176
- G2 cells, % of GMNN control: 4.2
- Call: inactive

MFSD2A #3
- G2 robust z-score: 1.91
- G2 cells, % of GMNN control: 16.4
- Call: inactive

BEST3 #1
- G2 robust z-score: -0.666
- G2 cells, % of GMNN control: -1.72
- Call: inactive

BEST3 #2
- G2 robust z-score: 1.85
- G2 cells, % of GMNN control: 16
- Call: inactive

BEST3 #3
- G2 robust z-score: 0.346
- G2 cells, % of GMNN control: 5.4
- Call: inactive

ANKUB1 #1
- G2 robust z-score: -1.08
- G2 cells, % of GMNN control: -4.6
- Call: inactive

ANKUB1 #2
- G2 robust z-score: 0.144
- G2 cells, % of GMNN control: 3.98
- Call: inactive

ANKUB1 #3
- G2 robust z-score: -0.854
- G2 cells, % of GMNN control: -3.04
- Call: inactive

HARS2 #1
- G2 robust z-score: -1.09
- G2 cells, % of GMNN control: -4.72
- Call: inactive

HARS2 #2
- G2 robust z-score: -0.772
- G2 cells, % of GMNN control: -2.47
- Call: inactive

HARS2 #3
- G2 robust z-score: 0.11
- G2 cells, % of GMNN control: 3.74
- Call: inactive

Sorted by “G2 robust z-score” (descending): 3 of the entries above.
ANKUB1 #2
- G2 robust z-score: 0.144
- G2 cells, % of GMNN control: 3.98
- Call: inactive

ANKUB1 #3
- G2 robust z-score: -0.854
- G2 cells, % of GMNN control: -3.04
- Call: inactive

ANKUB1 #1
- G2 robust z-score: -1.08
- G2 cells, % of GMNN control: -4.6
- Call: inactive
